The record followed here is article PMC1334198.

Chains of the proteins cited; added tags and fusions are not shown.
UniProt Q8IZP0: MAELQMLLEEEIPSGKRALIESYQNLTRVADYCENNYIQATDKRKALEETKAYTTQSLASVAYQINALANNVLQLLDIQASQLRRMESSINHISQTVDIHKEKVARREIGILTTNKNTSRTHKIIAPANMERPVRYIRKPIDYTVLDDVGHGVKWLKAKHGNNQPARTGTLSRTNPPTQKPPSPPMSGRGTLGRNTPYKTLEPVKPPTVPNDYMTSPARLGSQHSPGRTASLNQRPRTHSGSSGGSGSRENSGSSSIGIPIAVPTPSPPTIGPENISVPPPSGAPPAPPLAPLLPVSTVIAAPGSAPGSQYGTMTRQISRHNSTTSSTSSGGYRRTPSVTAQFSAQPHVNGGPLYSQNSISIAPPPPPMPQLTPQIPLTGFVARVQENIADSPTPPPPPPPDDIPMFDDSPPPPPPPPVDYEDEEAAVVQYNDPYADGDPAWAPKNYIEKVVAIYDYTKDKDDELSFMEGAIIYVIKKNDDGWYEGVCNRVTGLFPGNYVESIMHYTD
UniProt Q96F07: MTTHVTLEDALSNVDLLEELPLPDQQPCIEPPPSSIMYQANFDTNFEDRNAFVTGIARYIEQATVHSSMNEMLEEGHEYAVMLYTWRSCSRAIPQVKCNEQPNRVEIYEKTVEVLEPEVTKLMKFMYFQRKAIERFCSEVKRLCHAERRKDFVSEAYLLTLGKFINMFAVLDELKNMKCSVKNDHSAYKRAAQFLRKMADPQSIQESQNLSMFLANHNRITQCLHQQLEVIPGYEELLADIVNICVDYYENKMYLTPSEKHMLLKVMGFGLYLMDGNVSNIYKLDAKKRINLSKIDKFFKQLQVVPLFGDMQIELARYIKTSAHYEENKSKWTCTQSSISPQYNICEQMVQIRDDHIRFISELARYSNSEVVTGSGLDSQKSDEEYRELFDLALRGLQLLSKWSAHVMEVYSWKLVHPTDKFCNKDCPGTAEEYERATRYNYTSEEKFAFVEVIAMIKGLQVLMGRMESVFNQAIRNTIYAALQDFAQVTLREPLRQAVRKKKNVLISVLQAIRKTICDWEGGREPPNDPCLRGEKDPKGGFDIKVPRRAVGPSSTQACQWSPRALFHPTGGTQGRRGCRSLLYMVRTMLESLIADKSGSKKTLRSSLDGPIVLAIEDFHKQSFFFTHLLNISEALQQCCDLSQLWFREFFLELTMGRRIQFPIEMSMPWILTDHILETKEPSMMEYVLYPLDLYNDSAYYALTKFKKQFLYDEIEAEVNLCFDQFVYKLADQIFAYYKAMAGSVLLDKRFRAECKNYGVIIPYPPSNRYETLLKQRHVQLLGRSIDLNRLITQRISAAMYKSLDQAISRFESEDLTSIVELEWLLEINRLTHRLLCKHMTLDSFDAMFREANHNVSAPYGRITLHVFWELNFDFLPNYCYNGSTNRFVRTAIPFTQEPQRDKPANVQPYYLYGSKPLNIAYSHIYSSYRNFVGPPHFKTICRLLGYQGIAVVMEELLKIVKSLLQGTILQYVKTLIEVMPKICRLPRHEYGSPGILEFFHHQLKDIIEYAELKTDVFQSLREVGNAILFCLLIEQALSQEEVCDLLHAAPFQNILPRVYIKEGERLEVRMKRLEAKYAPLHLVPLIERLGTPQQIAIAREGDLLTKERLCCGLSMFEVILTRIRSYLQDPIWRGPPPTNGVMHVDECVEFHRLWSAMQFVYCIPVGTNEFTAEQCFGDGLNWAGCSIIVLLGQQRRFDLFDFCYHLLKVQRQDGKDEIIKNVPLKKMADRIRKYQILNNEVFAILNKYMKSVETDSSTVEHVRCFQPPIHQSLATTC
UniProt P98171: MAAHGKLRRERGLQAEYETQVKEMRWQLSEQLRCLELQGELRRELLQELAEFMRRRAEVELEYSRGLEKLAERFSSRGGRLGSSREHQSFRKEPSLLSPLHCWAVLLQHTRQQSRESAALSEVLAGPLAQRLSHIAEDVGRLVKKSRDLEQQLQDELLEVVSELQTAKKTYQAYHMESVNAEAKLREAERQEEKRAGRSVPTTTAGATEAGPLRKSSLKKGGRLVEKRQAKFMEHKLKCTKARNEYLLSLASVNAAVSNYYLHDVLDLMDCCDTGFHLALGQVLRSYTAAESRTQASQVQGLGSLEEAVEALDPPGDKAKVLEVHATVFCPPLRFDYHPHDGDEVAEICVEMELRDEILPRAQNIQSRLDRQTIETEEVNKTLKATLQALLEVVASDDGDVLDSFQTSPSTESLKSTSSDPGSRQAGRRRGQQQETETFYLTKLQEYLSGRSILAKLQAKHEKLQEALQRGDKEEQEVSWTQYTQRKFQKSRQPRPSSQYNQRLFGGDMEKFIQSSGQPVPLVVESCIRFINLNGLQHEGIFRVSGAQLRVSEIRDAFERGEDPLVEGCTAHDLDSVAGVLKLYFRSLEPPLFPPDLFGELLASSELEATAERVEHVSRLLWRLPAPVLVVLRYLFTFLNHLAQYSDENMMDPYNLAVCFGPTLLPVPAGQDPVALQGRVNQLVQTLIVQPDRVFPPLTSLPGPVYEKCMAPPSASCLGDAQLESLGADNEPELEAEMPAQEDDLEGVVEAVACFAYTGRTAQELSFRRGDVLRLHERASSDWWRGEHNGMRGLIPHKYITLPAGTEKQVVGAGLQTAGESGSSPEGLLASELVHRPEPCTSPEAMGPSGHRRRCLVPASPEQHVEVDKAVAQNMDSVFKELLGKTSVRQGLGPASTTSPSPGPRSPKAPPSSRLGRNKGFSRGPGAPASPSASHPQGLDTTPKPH
UniProt Q9Y6W5: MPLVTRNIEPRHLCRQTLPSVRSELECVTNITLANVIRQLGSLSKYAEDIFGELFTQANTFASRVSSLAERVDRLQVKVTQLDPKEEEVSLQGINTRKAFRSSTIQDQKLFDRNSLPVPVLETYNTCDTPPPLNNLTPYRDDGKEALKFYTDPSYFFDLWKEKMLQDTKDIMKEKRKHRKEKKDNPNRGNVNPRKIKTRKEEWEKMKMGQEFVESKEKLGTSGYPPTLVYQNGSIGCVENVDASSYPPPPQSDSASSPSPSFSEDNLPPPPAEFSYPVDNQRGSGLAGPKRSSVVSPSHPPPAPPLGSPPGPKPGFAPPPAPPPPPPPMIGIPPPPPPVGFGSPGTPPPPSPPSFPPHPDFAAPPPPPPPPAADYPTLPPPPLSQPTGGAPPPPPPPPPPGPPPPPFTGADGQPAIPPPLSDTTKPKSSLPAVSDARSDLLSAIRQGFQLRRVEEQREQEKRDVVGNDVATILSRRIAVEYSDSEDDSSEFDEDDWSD
UniProt Q13459: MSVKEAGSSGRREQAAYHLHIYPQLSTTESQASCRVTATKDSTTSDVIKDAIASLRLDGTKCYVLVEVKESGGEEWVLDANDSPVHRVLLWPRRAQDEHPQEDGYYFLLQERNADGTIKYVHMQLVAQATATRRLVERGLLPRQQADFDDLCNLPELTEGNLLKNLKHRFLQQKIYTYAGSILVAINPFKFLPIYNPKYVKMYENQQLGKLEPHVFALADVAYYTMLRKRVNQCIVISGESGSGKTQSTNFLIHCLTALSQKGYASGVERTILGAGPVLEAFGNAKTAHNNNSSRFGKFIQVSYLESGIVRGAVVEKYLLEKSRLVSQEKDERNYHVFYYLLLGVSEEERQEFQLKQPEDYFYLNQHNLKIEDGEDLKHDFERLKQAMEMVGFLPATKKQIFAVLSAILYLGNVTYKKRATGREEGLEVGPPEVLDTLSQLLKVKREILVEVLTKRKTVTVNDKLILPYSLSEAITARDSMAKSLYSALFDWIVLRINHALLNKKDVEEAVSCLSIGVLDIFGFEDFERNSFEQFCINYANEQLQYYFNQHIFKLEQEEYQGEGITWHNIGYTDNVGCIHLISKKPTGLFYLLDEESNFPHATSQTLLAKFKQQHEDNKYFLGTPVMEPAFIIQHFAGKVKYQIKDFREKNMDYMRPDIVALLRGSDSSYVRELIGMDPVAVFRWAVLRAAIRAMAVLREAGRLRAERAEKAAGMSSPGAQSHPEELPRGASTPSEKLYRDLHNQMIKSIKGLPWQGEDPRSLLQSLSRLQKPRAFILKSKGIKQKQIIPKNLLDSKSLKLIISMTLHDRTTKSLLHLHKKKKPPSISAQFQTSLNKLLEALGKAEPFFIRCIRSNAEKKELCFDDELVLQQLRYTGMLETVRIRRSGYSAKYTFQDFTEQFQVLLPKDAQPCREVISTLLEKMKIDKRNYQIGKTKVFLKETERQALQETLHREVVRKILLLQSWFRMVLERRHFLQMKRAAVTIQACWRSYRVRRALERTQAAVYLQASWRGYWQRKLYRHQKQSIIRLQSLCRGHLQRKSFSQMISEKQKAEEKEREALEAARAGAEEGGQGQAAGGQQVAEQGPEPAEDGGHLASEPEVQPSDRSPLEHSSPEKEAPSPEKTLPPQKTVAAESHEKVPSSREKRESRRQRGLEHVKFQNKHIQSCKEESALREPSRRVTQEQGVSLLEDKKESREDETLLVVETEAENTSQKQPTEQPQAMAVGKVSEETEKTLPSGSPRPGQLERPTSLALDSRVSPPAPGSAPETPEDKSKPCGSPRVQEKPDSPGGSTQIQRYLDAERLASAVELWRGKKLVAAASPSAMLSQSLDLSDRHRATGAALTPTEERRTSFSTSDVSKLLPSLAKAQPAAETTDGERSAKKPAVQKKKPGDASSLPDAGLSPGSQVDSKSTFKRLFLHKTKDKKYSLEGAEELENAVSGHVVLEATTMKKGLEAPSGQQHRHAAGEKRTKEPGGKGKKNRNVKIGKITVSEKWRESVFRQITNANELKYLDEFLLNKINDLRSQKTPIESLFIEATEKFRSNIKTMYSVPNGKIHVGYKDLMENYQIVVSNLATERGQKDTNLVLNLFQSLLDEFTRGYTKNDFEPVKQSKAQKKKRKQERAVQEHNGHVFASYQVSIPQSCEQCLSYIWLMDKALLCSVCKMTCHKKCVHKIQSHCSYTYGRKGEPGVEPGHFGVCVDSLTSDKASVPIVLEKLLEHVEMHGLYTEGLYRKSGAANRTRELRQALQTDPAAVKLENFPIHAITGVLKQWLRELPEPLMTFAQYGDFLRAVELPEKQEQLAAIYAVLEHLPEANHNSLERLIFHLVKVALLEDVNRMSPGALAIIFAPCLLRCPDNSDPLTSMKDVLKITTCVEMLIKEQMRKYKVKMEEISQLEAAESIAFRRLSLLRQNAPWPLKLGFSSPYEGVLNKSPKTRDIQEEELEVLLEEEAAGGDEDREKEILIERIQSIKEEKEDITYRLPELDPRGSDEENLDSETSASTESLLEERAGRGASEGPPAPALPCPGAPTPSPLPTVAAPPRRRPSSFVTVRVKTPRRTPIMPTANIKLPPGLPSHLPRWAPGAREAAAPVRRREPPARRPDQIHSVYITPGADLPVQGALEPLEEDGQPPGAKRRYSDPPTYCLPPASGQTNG

The assay has as its target T1, hematopoietic protein 1 (Hem-1) (human (endogenous in HL-60)) (UniProt P55160).
T1 sequence: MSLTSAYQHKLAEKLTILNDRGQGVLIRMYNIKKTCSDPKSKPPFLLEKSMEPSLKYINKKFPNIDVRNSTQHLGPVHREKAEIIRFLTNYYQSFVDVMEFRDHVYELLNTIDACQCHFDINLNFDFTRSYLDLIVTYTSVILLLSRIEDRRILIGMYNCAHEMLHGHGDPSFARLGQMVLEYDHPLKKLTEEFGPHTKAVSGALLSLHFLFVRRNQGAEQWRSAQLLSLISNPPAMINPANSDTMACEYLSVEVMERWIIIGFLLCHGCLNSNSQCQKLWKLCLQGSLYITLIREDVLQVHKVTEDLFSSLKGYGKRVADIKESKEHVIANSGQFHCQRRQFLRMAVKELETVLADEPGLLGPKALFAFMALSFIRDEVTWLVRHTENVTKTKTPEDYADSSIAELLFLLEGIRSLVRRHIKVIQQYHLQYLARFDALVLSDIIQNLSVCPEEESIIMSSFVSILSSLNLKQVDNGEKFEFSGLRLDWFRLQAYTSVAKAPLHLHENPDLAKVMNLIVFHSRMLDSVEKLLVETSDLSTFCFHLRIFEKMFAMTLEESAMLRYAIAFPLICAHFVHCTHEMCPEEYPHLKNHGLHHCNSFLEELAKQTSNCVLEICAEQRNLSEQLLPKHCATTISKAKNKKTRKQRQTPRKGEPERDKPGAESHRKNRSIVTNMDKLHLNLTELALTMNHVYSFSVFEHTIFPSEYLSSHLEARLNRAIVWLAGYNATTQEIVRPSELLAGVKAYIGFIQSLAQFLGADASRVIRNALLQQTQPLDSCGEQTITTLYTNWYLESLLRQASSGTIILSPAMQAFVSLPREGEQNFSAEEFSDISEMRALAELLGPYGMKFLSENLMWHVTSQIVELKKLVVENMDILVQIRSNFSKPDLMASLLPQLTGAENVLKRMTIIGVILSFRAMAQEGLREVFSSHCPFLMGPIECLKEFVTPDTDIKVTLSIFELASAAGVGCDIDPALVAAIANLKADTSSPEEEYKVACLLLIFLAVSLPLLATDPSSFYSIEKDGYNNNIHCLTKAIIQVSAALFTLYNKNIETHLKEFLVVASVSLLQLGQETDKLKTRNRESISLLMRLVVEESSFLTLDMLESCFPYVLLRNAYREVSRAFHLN
In words: affinity purification with mass spectrometry; endogenous Hem-1 immunoprecipitated from differentiated HL-60 lysate (2 ml, 10 mg protein) with affinity-purified peptide antibodies (646-659 or 1114-1127) on protein A beads, washed with buffer B with 300 mM KCl and with 0.1% Tween-20, eluted with the Hem-1 peptide, 4 °C; gel slices identified by mass spectrometry.

No constants are given. Whether binding was seen depends on the method and setting. Binding seen in cells or lysates may run through a third protein. These calls come from enrichment with a bait or labelling near it, and not all partners need be listed.

In the case of “Abi-1 (Abelson interactor 1) (from UniProt Q8IZP0 1-508)”, the binding entry is on record as “binds”. Then CYFIP2 (from UniProt Q96F07 1-1278), with “binds”; and RhoGAP4 (from UniProt P98171 1-946), with “binds”; and “Wiskott-Aldrich syndrome protein family Verprolin-homologous protein (WAVE)2 (from UniProt Q9Y6W5 1-498)”, with “binds”. With myosin IXB (from UniProt Q13459 1-2157) the entry was “binds”.
